Results as given in US6787530B1, “Use of pregnane-diones as analgesic agents” (priority 1996, dated 2004).

What was measured:
[1] = test system: rats; test: Loss of righting reflex and loss of coordination in the rotarod test after intraperitoneal dosing; conditions: ip; Saffan 2 ml/kg, alphaxalone 18 mg/kg, alphadolone 6 mg/kg; groups of 10 rats
Source text: (§1) Groups of 10 rats were examined for the duration of the loss of righting reflex and loss of coordination in the rotarod test and also for antinociceptive effects in the electrical current threshold test measured in the tail. […] Thus we were able to compare the duration of sedation and anaesthesia and quantity of antinociception following intraperitoneal administration of the neurosteroid mixture and also following the components of the mixture at the doses which were given when the combination was used.
We have gone on to test the ability for alphadolone to produce sedation. We have given doses up to […] intraperitoneally of alphadolone.

[2] = test system: spinal cord GABAA receptors; conditions: rat, in vivo
Source text: as §1
Rats were given a range of doses of alphadolone from 0.1 to 100 mg/kg intraperitoneally. The antinociceptive effect was measured using electrical current in the tail.

## CC(=O)[C@H]1CC[C@H]2[C@@H]3CC[C@H]4C[C@H](O)CC[C@]4(C)[C@H]3C(=O)C[C@]12C [alphaxalone, reference compound]
[1]
  sedation and anaesthesia (loss of righting reflex, loss of coordination in rotarod test): same onset and duration of sedation and anaesthesia
[2]
  antinociceptive effects in the electrical current threshold test measured in the tail: no antinociceptive effects whatsoever
